# Results of single-concentration screens

Sequences of proteins named here, by UniProt entry; tags and fusion partners are left off. Residues count along the entry.
UniProt Q4DA54, 1-478: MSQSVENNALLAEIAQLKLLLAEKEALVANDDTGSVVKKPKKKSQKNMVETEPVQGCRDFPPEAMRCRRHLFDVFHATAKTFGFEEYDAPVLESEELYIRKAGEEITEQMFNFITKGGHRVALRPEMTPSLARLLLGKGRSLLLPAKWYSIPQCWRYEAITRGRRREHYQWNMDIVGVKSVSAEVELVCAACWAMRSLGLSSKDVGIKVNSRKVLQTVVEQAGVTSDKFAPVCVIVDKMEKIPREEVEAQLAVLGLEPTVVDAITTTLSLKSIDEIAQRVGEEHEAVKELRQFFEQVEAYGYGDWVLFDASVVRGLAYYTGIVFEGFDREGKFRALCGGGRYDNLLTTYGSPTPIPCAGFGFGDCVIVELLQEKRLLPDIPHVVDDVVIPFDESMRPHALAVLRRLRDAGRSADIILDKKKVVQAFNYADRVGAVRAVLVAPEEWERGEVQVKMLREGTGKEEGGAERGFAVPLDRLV
UniProt P9WPC5, whole entry: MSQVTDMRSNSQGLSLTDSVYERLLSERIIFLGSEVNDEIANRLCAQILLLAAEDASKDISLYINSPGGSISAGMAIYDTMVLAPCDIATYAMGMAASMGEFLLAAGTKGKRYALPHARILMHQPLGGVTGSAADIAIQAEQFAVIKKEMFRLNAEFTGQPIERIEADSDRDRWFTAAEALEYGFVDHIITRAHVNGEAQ
UniProt P9WPC3, whole entry partner: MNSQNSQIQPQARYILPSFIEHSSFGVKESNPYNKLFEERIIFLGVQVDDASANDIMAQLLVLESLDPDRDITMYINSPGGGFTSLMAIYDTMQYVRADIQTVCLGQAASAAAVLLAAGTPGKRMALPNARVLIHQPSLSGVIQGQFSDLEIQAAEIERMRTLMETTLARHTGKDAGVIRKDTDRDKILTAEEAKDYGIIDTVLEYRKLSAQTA
UniProt Q8IDJ8, 1-583: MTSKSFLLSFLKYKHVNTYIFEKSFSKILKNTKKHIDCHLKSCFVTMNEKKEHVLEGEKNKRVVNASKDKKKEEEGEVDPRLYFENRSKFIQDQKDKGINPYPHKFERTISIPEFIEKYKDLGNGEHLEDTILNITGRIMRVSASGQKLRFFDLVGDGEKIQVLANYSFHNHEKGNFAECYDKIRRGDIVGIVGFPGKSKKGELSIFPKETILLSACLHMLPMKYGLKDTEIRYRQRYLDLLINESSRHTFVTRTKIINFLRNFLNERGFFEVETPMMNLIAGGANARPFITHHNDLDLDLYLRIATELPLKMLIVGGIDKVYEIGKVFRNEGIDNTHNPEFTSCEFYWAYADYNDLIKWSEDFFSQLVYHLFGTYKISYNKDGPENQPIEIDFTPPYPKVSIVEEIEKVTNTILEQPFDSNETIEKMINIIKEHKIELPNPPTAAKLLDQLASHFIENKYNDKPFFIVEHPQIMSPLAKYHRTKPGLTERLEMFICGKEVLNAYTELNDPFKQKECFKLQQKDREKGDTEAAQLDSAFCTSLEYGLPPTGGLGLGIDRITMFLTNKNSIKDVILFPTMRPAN

Values are the deposited “Percent Effect”, in %. How 0% and 100% were set is not recorded. Most values in the screen are low, and negative values occur. This is an unselected part of the compounds tested. Two or more numbers in one place are separate tests of the same structure; such repeats can differ widely.

A: 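Cell assay of Leishmania donovani living inside macrophages; the read-out is not stated. Tested at 30 µM. Direction is inferred from retests: higher values go with stronger inhibition. Size under these conditions: about 69,000 compounds, about 1,000 of them at 50% or above in at least one test.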
B: 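Enzyme assay of histidyl-tRNA synthetase; the read-out is not stated. Target: Histidine-tRNA ligase, Trypanosoma cruzi CL Brener (UniProt Q4DA54). Concentration: 30 µM. Higher reads as stronger inhibition (inferred: compounds with an IC50 in retests scored well above the rest). Of about 69,000 compounds tested this way, about 31 (0.045%) reached 50% or more in at least one test.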
C: 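Protease assay of ClpP1P2, read by the AMC dye that it sets free. Target: ClpP1P2, Mycobacterium tuberculosis (UniProt P9WPC5 and UniProt P9WPC3). Concentration: 50 µM. Direction is inferred from only a few compounds that gave an IC50; most scored high, so higher reads as stronger inhibition. Most other retested compounds had strongly negative values. About 69,000 compounds were tested under these conditions; 0.015% (about 10) showed 50% or more at least once.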
D: 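Assay of Toxoplasma gondii numbers, read through their beta-galactosidase reporter with a colour substrate. Tested at 10 µM. The record gives no direction; the compounds picked for IC50 retests had high values, so higher reads as fewer parasites. About 67,000 compounds were tested under these conditions; 0.38% (about 260) showed 50% or more at least once.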
E: 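Enzyme assay of the cytosolic lysyl-tRNA synthetase in 384-well plates, read by luminescence. Target: Lysine-tRNA ligase, Plasmodium falciparum 3D7 (UniProt Q8IDJ8). Tested at 30 µM. Direction is inferred from only a few compounds that gave an IC50; most scored high, so higher reads as stronger inhibition. Size under these conditions: about 69,000 compounds, about 49 of them at 50% or above in at least one test.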

With Cn1ccnc1-c1cn(CCc2nnc(N)s2)nn1 the screen gave A: -43.86%; B: 9.453%; C: -7.316%; D: -6.543%; E: -0.2552%.
With O=C(O)C(F)(F)F.[H][C@]12CCN(c3ccccn3)[C@@]1([H])CC[C@@H](COCc1csc(C)n1)O2 the screen gave A: 2.871%; D: 3.158%.
With COc1ccccc1Oc1ncccc1CNC(=O)[C@@H](N)CCO the screen gave A: 4.898%; B: 1.058%; C: 8.953%; D: 3.133%; E: 0.377%.
With Cn1ncc2c(=O)[nH]c(CN3CCCC3Cc3ccc(F)cc3)nc21 (centres undefined) the screen gave A: 22.28%; B: 8.671%; C: -31.66%; D: 2.212%; E: -0.8306%.
With Cc1cnn(CC(C)Nc2nc(C)cc(N(C)C)n2)c1 (centres undefined) the screen gave A: 2.116%; B: 5%; C: -5.128%; D: -2.727%; E: -0.192%.
With O=C(CCN1C(=O)CCC1=O)Nc1ccc(Oc2ccc(Cl)cc2)nc1 the screen gave A: -35.44%; B: 8.046%; C: 3.743%; E: 7.3%.
With CCNc1ncc(C(=O)N(C)C(C)c2ccc3c(c2)OCCO3)cn1 (centres undefined) the screen gave A: -13.99%; B: 4.386%; C: -12.87%; D: 4.364%; E: -1.263%.
With CS(=O)(=O)N1CCc2ccc(C(=O)N3CCn4ncnc4C3)cc21 the screen gave A: 19.06%; B: 3.143%; C: -15.05%; D: -8.773%; E: -0.08781%.
With Cc1cc(-c2ccccc2C(=O)O)nc(C2CCCN(C(C)C)C2)n1 (centres undefined) the screen gave A: 18.07% and 9.246%; B: 3.333%; C: -9.75%; D: 7.387%; E: 2.453%.
With CC(O)(CNc1ccccn1)c1ccccc1 (centres undefined) the screen gave A: -16.7%; B: 6.18%; C: -4.88%; D: 4.533%; E: 2.134%.
With CN(CCc1ccccn1)C(=O)Nc1cc(C(F)(F)F)c[nH]c1=O the screen gave A: -27.22%; B: 0%; C: 2.585%; D: -7.275%; E: 1.089%.
With Cc1cnn(CC2CN(c3ncnc4ccsc34)CCO2)c1 (centres undefined) the screen gave A: 66.34%; B: 6.952%; C: 1.286%; D: 4.489%; E: 6.154%.
With CC(C)c1cc(C2CCCN2C(=O)CN2C(=O)OC(C)(C)C2=O)no1 (centres undefined) the screen gave A: 45.65%; B: 11%; C: 1.266%; D: 9.496%; E: 0.7564%.
With Cc1nc(CN2CCCn3c(nc(Cn4ccnc4)cc3=O)C2)cs1 the screen gave A: 14.8%; B: -4.918%; C: 6.969%; D: 4.065%; E: 2.88%.
With CC(=O)N1CCN(C(=O)c2[nH]nnc2Nc2ccccc2F)CC1 the screen gave A: 25.8%; B: 1.242%; C: -14.35%; D: 6.881%; E: 5.689%.
With [H][C@@]12CN(Cc3ccoc3)C[C@]1([H])OCCN2CC1CCCO1 (some centres undefined) the screen gave A: 19.52%; D: 3.851%.
With O=C(c1ccc(-c2nc[nH]n2)cc1)N1CCOC(C(F)(F)F)C1 (centres undefined) the screen gave A: -0.1521%; B: -1.316%; C: -4.763%; D: -5.822%; E: -2.41%.
With Cc1ccc(CN2CCCN(Cc3cscn3)CC2)cc1 the screen gave A: 27.95%; B: 13.45%; C: 8.907%; D: 2.2%; E: 30.61%.
With CC(=O)Nc1ccn(Cc2ccccc2)n1 the screen gave A: -2.194%; B: 9.845%; C: 10.63%; D: 2.879%; E: 8.555%.
With O=C(O)CN1CCC2(CCc3ccccc32)CC1 the screen gave A: -22.46%; B: -0.9804%; C: -12.05%; D: 2.704%; E: 0.2597%.
With O=C(c1cc[nH]n1)N1CCCC1c1cnccn1 (centres undefined) the screen gave A: 10.16%; B: 9.125%; C: -7.825%; D: -40.24%; E: -0.1519%.
With Cc1ncccc1Oc1ncnc(N2CCCC(O)(CO)CC2)c1C (centres undefined) the screen gave A: 15.41%; B: 1.754%; C: -19.74%; D: -20.49%; E: 0.8618%.
With O=C(O)C(F)(F)F.O=C(O)C(F)(F)F.c1cnc(N2CCCC3(CCN(CC4CC4)C3)C2)nc1 (centres undefined) the screen gave A: 29.01%; D: 5.748%.
With CO[C@H]1CN(CC2CC2)[C@@H]2CCCO[C@H]12 the screen gave B: -3.518%; C: -6.192%; E: 1.043%.
With O=C1CC2(CCN(Cc3ccsc3)C2)CN1c1ccc2c(c1)OCO2 (centres undefined) the screen gave A: 21.67%; B: 5.785%; C: -2.725%; D: 3.508%; E: -0.05831%.

For reference, 2 entries once more:

| structure | A | B | C | D | E |
|---|---|---|---|---|---|
| `CC(=O)N1CCN(C(=O)c2[nH]nnc2Nc2ccccc2F)CC1` | 25.8 | 1.242 | -14.35 | 6.881 | 5.689 |
| `CC(O)(CNc1ccccn1)c1ccccc1` (centres undefined) | -16.7 | 6.18 | -4.88 | 4.533 | 2.134 |

Measurements from “University of Dundee, Small-Polar-MMV Screening Library” (2021), ChEMBL document CHEMBL3988442.